{"source": "the supplement of paper PMC8728848", "binders": {"B1": {"name": "DCIR1 (Mus musculus), Q9QZ15 (protein)", "chain": "MASEITYAEVKFKNESNSLHTYSESPAAPREKPIRDLRKPGSPSLLLTSLMLLLLLLAITFLVAFIIYFQKYSQLLEEKKAAKNIMHNELNCTKSVSPMEDKVWSCCPKDWRLFGSHCYLVPTVSSSASWNKSEENCSRMGAHLVVIQSQEEQDFITGILDTHAAYFIGLWDTGHRQWQWVDQTPYEESITFWHNGEPSSGNEKCATIIYRWKTGWGWNDISCSLKQKSVCQMKKINL"}}, "test_in_all_cases": "glycan array binding signal (z-score within array); higher = stronger binding", "settings_in_all_cases": "glycan notation: IUPAC condensed, linker removed", "key": {"[1]": {"molecular_target": "Fuc(a1-2)Gal(b1-4)GlcNAc(b1-3)Gal(b1-4)GlcNAc(b1-2)Man(a1-3)[Fuc(a1-2)Gal(b1-4)GlcNAc(b1-3)Gal(b1-4)GlcNAc(b1-2)Man(a1-6)]Man(b1-4)GlcNAc(b1-4)GlcNAc", "summary_of_the_method": "(§1)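 From the Consortium for Functional Glycomics database, 3228 arrays were curated, keeping only those whose protein sequence was available. Binding is given as a within-array Z-score averaged across arrays sharing a protein sequence and across linkers. Negative Z-scores can be read as non-binding.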"}, "[2]": {"molecular_target": "Fuc(a1-2)Gal(b1-4)GlcNAc(b1-3)Gal(b1-4)GlcNAc(b1-3)Gal(b1-4)GlcNAc", "summary_of_the_method": "as §1"}, "[3]": {"molecular_target": "Fuc(a1-2)Gal(b1-4)GlcNAc(b1-3)GalNAc", "summary_of_the_method": "as §1"}, "[4]": {"molecular_target": "Fuc(a1-2)Gal(b1-4)GlcNAc(b1-3)[Fuc(a1-2)Gal(b1-4)GlcNAc(b1-6)]GalNAc", "summary_of_the_method": "as §1"}, "[5]": {"molecular_target": "Fuc(a1-2)Gal(b1-4)GlcNAc(b1-3)[Fuc(a1-3)[Gal(b1-4)]GlcNAc(b1-6)]Gal(b1-4)Glc", "summary_of_the_method": "as §1"}, "[6]": {"molecular_target": "Fuc(a1-2)Gal(b1-4)GlcNAc(b1-6)GalNAc", "summary_of_the_method": "as §1"}, "[7]": {"molecular_target": "Fuc(a1-2)Gal(b1-4)GlcNAc6S", "summary_of_the_method": "as §1"}, "[8]": {"molecular_target": "Fuc(a1-2)Gal(b1-4)[Fuc(a1-3)]GlcNAc", "summary_of_the_method": "as §1"}, "[9]": {"molecular_target": "Fuc(a1-2)Gal(b1-4)[Fuc(a1-3)]GlcNAc(b1-2)Man(a1-3)[Fuc(a1-2)Gal(b1-4)[Fuc(a1-3)]GlcNAc(b1-2)Man(a1-6)]Man(b1-4)GlcNAc(b1-4)[Fuc(a1-6)]GlcNAc", "summary_of_the_method": "as §1"}, "[10]": {"molecular_target": "Fuc(a1-2)Gal(b1-4)[Fuc(a1-3)]GlcNAc(b1-2)[Fuc(a1-2)Gal(b1-4)[Fuc(a1-3)]GlcNAc(b1-4)]Man(a1-3)[Fuc(a1-2)Gal(b1-4)[Fuc(a1-3)]GlcNAc(b1-2)Man(a1-6)]Man(b1-4)GlcNAc(b1-4)GlcNAc", "summary_of_the_method": "as §1"}, "[11]": {"molecular_target": "Fuc(a1-2)Gal(b1-4)[Fuc(a1-3)]GlcNAc(b1-3)Gal(b1-4)[Fuc(a1-3)]GlcNAc", "summary_of_the_method": "as §1"}, "[12]": {"molecular_target": "Fuc(a1-2)Gal(b1-4)[Fuc(a1-3)]GlcNAc(b1-3)Gal(b1-4)[Fuc(a1-3)]GlcNAc(b1-3)Gal(b1-4)[Fuc(a1-3)]GlcNAc", "summary_of_the_method": "as §1"}, "[13]": {"molecular_target": "Fuc(a1-2)Gal(b1-4)[Fuc(a1-3)]GlcNAc(b1-3)GalNAc", "summary_of_the_method": "as §1"}, "[14]": {"molecular_target": "Fuc(a1-2)Gal(b1-4)[Fuc(a1-3)]GlcNAc(b1-3)[Neu5Ac(a2-6)Gal(b1-4)GlcNAc(b1-6)]Gal(b1-4)Glc", "summary_of_the_method": "as §1"}, "[15]": {"molecular_target": "Fuc(a1-2)Gal3S(b1-4)GlcNAc", "summary_of_the_method": "as §1"}, "[16]": {"molecular_target": "Fuc(a1-2)Gal6S(b1-3)GlcNAc", "summary_of_the_method": "as §1"}, "[17]": {"molecular_target": "Fuc(a1-2)Gal6S(b1-3)GlcNAc6S", "summary_of_the_method": "as §1"}, "[18]": {"molecular_target": "Fuc(a1-2)Gal6S(b1-4)Glc", "summary_of_the_method": "as §1"}, "[19]": {"molecular_target": "Fuc(a1-2)Gal6S(b1-4)Glc6S", "summary_of_the_method": "as §1"}, "[20]": {"molecular_target": "Fuc(a1-2)[Gal(a1-3)]Gal", "summary_of_the_method": "as §1"}, "[21]": {"molecular_target": "Fuc(a1-2)[Gal(a1-3)]Gal(b1-3)GalNAc", "summary_of_the_method": "as §1"}, "[22]": {"molecular_target": "Fuc(a1-2)[Gal(a1-3)]Gal(b1-3)GalNAc(b1-3)Gal(a1-4)Gal(b1-4)Glc", "summary_of_the_method": "as §1"}, "[23]": {"molecular_target": "Fuc(a1-2)[Gal(a1-3)]Gal(b1-3)GlcNAc", "summary_of_the_method": "as §1"}, "[24]": {"molecular_target": "Fuc(a1-2)[Gal(a1-3)]Gal(b1-3)GlcNAc(b1-2)Man(a1-3)[Fuc(a1-2)[Gal(a1-3)]Gal(b1-3)GlcNAc(b1-2)Man(a1-6)]Man(b1-4)GlcNAc(b1-4)GlcNAc", "summary_of_the_method": "as §1"}, "[25]": {"molecular_target": "Fuc(a1-2)[Gal(a1-3)]Gal(b1-3)GlcNAc(b1-2)Man(a1-3)[Fuc(a1-2)[Gal(a1-3)]Gal(b1-3)GlcNAc(b1-2)Man(a1-6)]Man(b1-4)GlcNAc(b1-4)[Fuc(a1-6)]GlcNAc", "summary_of_the_method": "as §1"}, "[26]": {"molecular_target": "Fuc(a1-2)[Gal(a1-3)]Gal(b1-3)GlcNAc(b1-3)GalNAc", "summary_of_the_method": "as §1"}, "[27]": {"molecular_target": "Fuc(a1-2)[Gal(a1-3)]Gal(b1-3)GlcNAc(b1-6)GalNAc", "summary_of_the_method": "as §1"}, "[28]": {"molecular_target": "Fuc(a1-2)[Gal(a1-3)]Gal(b1-4)Glc", "summary_of_the_method": "as §1"}, "[29]": {"molecular_target": "Fuc(a1-2)[Gal(a1-3)]Gal(b1-4)GlcNAc", "summary_of_the_method": "as §1"}, "[30]": {"molecular_target": "Fuc(a1-2)[Gal(a1-3)]Gal(b1-4)GlcNAc(b1-2)Man", "summary_of_the_method": "as §1"}}, "note": "This is one part of the list."}
{"binder": "B1", "values": [{"measurement": "glycan array binding signal (z-score)", "setting": "[1]", "value": 0.837}, {"measurement": "glycan array binding signal (z-score)", "setting": "[2]", "value": -0.824}, {"measurement": "glycan array binding signal (z-score)", "setting": "[3]", "value": 0.788}, {"measurement": "glycan array binding signal (z-score)", "setting": "[4]", "value": 0.614}, {"measurement": "glycan array binding signal (z-score)", "setting": "[5]", "value": -1.01}, {"measurement": "glycan array binding signal (z-score)", "setting": "[6]", "value": 3.97}, {"measurement": "glycan array binding signal (z-score)", "setting": "[7]", "value": -0.09}, {"measurement": "glycan array binding signal (z-score)", "setting": "[8]", "value": -0.326}, {"measurement": "glycan array binding signal (z-score)", "setting": "[9]", "value": 1.86}, {"measurement": "glycan array binding signal (z-score)", "setting": "[10]", "value": 2.36}, {"measurement": "glycan array binding signal (z-score)", "setting": "[11]", "value": -1.12}, {"measurement": "glycan array binding signal (z-score)", "setting": "[12]", "value": 0.301}, {"measurement": "glycan array binding signal (z-score)", "setting": "[13]", "value": 0.489}, {"measurement": "glycan array binding signal (z-score)", "setting": "[14]", "value": -0.921}, {"measurement": "glycan array binding signal (z-score)", "setting": "[15]", "value": -0.361}, {"measurement": "glycan array binding signal (z-score)", "setting": "[16]", "value": -0.094}, {"measurement": "glycan array binding signal (z-score)", "setting": "[17]", "value": 1.29}, {"measurement": "glycan array binding signal (z-score)", "setting": "[18]", "value": 1.87}, {"measurement": "glycan array binding signal (z-score)", "setting": "[19]", "value": 0.976}, {"measurement": "glycan array binding signal (z-score)", "setting": "[20]", "value": 0.657}, {"measurement": "glycan array binding signal (z-score)", "setting": "[21]", "value": 0.389}, {"measurement": "glycan array binding signal (z-score)", "setting": "[22]", "value": -1.1}, {"measurement": "glycan array binding signal (z-score)", "setting": "[23]", "value": 1.87}, {"measurement": "glycan array binding signal (z-score)", "setting": "[24]", "value": 0.553}, {"measurement": "glycan array binding signal (z-score)", "setting": "[25]", "value": 0.324}, {"measurement": "glycan array binding signal (z-score)", "setting": "[26]", "value": -0.516}, {"measurement": "glycan array binding signal (z-score)", "setting": "[27]", "value": 0.938}, {"measurement": "glycan array binding signal (z-score)", "setting": "[28]", "value": 1.2}, {"measurement": "glycan array binding signal (z-score)", "setting": "[29]", "value": -0.066}, {"measurement": "glycan array binding signal (z-score)", "setting": "[30]", "value": -0.077}]}
